These are yes or no findings as the source states them, for the method shown. Some entries that bind do so weakly or less than the wild type.

By UniProt entry, the sequences of proteins in these tests, tags left out. Residues count along the entry.
UniProt P36544, residues 231-495: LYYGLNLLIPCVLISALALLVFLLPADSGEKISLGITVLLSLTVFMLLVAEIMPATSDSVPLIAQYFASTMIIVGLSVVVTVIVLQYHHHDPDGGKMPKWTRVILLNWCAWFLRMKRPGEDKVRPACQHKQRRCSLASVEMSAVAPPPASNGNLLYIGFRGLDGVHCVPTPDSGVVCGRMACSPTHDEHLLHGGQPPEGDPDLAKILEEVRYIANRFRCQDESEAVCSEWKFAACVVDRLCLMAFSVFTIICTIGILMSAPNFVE
UniProt Q9NRD5, residues 19-110: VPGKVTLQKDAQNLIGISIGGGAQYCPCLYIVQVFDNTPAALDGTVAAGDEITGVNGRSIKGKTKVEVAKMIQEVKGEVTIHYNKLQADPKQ

The target of assay [1] is human α7nAChR transmembrane and intracellular domains (TMD+ICD) (human) (UniProt P36544). The assay can be described thus: paramagnetic relaxation enhancement (PRE) NMR; 1H-15N TROSY-HSQC of isotope-labeled α7nAChR TMD+ICD with PICK1 PDZ carrying MTSL at C44 and C46; paramagnetic (I) against diamagnetic (I0, 2.5 mM ascorbic acid); LDAO micelles; both purified.
Assay [2] shares this target. The assay is described as follows: saturation transfer difference (STD) NMR; 2D 1H-15N TROSY-HSQC of 15N-labeled α7nAChR TMD+ICD with unlabeled PICK1 PDZ, saturation of the PICK1 I33 1HN peak (~11.6 ppm) for 0.5 s, off-resonance at 20 ppm; LDAO micelles; both purified.
Assay [3] has the same target. The assay can be described thus: NMR titration; 1H-15N TROSY-HSQC chemical shift perturbation of 15N-labeled α7nAChR TMD+ICD (150-200 μM) with unlabeled PICK1 PDZ (0, 65, 210 μM); 0.5-1% LDAO, 25 mM NaCl, 5 mM sodium acetate pH 5; 45°C; both purified.
The target in assay [4] is PDZ domain of human PICK1, tag cleaved with TEV protease (NMR sample) (human) (UniProt Q9NRD5). The assay can be described thus: NMR titration; 1H-15N TROSY-HSQC chemical shift perturbation of 15N-labeled PICK1 PDZ (50-100 μM) without or with unlabeled α7nAChR TMD+ICD (10 μM); 25 mM Tris pH 7.4, 0.02-0.03% LDAO, 125 mM NaCl; 45°C; both purified.

For “PDZ domain of human PICK1 labeled with MTSL at C44 and C46 (from UniProt Q9NRD5 19-110) (domain or fragment)”, the binding entry in assay [1] is recorded as “binds”.

Regarding “PDZ domain of human PICK1, tag cleaved with TEV protease (NMR sample) (from UniProt Q9NRD5 19-110) (domain or fragment)”, the binding entry in assay [2] and in assay [3] was “binds” each time.

As to “human α7nAChR transmembrane and intracellular domains (TMD+ICD) (from UniProt P36544 231-495) (domain or fragment)”, the binding result in assay [4] is listed as “binds”.

The record behind these values is PMC11099923.
